# Measured values reported in paper PMC11790089.
# Biological target: Flag-tagged pLORF1 (MDV-1 Md5 LORF1 gene product) (Marek's disease virus serotype 1 (MDV-1, Gallid herpesvirus 2), strain Md5)
# Experiment: co-IP; 293T cells co-transfected with Flag-tagged pLORF1 and HA-tagged HSV-1 proteins or EBV BGLF2 for 36 hours; whole cell lysates (50 mM Tris-HCl pH 7.5, 150 mM NaCl, 1 mM EDTA, 0.5% NP-40) precipitated with anti-Flag antibody and protein A/G magnetic beads, 4 hours at 4°C; control mouse IgG; blots with anti-Flag and anti-HA
binder,measurement,value
"HA-tagged EBV tegument protein BGLF2 (protein, UniProt P0CK53 1-336) MASAANSSREQLRKFLNKECLWVLSDASTPQMKVYTATTAVSAVYVPQIAGPPKTYMNVTLIVLKPKKKPTYVTVYINGTLATVARPEVLFTKAVQGPHSLTLMYFGVFSDAVGEAVPVEIRGNPVVTCTDLTTAHVFTTSTAVKTVEELQDITPSEIIPLGRGGAWYAEGALYMFFVNMDMLMCCPNMPTFPSLTHFINLLTRCDNGECVTCYGAGAHVNILRGWTEDDSPGTSGTCPCLLPCTALNNDYVPITGHRALLGLMFKPEDAPFVVGLRFNPPKMHPDMSRVLQGVLANGKEVPCTAQPWTLLRFSDLYSRAMLYNCQVLKRQVLHSY",binding,no binding

# These are yes or no findings as the source states them, for the method shown. Binding seen in cells or lysates may run through a third protein. Sequences can lack the tags named with a protein.
